Drawing on PMC3262814, “Purification and Activity Testing of the Full-Length YycFGHI Proteins of Staphylococcus aureus” (PLoS ONE, 2012), this text covers binding for one substance.

This assay concerns the target YycF-C-His6 (Staphylococcus aureus SA137/93A) (UniProt Q2G2U6). The assay can be described thus: native gel or EMSA; blue native PAGE (BN-PAGE) of single proteins; 4-20% Tris-HCl gradient gel; 5 µg of YycF, YycH, YycI or 10 µg of YycG, YycG(Y306N) in 10 µl dialysis buffer I (50 mM NaH2PO4, 300 mM NaCl, 50% glycerol, pH 8) with Coomassie Brilliant Blue R250; 80 V, 4-7°C; masses calibrated with soluble markers and a conversion factor; both purified. On the technique in general: A gel shift assay detects complexes by their altered migration in electrophoresis.

These are yes or no findings as the source states them, for the method shown.

With YycF-C-His6 (from UniProt Q2G2U6 1-233), the binding entry is “no binding (tested: 5 µg in 10 µl)”.
